Test results from PMC8586336.
No constants are given. Whether binding was seen depends on the method and setting. In cells and extracts the contact can be indirect. Sequences can lack the tags named with a protein.

By UniProt entry, the sequences of proteins in these tests, tags left out.
UniProt Q96SW2: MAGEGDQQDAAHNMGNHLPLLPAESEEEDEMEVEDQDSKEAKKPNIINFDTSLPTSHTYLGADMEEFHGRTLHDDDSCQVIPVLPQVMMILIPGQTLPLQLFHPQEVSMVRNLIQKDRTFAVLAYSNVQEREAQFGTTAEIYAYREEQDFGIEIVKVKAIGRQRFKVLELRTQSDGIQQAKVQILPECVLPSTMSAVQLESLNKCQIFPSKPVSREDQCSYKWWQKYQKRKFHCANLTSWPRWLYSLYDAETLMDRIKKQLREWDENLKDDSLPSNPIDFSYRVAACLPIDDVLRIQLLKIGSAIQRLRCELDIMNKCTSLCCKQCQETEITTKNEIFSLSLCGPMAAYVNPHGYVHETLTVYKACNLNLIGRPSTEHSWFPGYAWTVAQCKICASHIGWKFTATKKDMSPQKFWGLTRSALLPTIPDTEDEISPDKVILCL

B1: PLZF^G410/438/467A (Myc-FLAG tagged) (protein, UniProt Q05516 1-673)
chain: MDLTKMGMIQLQNPSHPTGLLCKANQMRLAGTLCDVVIMVDSQEFHAHRTVLACTSKMFEILFHRNSQHYTLDFLSPKTFQQILEYAYTATLQAKAEDLDDLLYAAEILEIEYLEEQCLKMLETIQASDDNDTEATMADGGAEEEEDRKARYLKNIFISKHSSEESGYASVAGQSLPGPMVDQSPSVSTSFGLSAMSPTKAAVDSLMTIGQSLLQGTLQPPAGPEEPTLAGGGRHPGVAEVKTEMMQVDEVPSQDSPGAAESSISGGMGDKVEERGKEGPGTPTRSSVITSARELHYGREESAEQVPPPAEAGQAPTGRPEHPAPPPEKHLGIYSVLPNHKADAVLSMPSSVTSGLHVQPALAVSMDFSTYGGLLPQGFIQRELFSKLGELAVGMKSESRTIGEQCSVCAVELPDNEAVEQHRKLHSGMKTYGCELCAKRFLDSLRLRMHLLAHSAGAKAFVCDQCAAQFSKEDALETHRQTHTGTDMAVFCLLCGKRFQAQSALQQHMEVHAGVRSYICSECNRTFPSHTALKRHLRSHTGDHPYECEFCGSCFRDESTLKSHKRIHTGEKPYECNGCGKKFSLKHQLETHYRVHTGEKPFECKLCHQRSRDYSAMIKHLRTHNGASPYQCTICTEYCPSLSSMQKHMKGHKPEEIPPDWRIEKTYLYLCYV
B2: PLZF^G410/467A (Myc-FLAG tagged) (protein, UniProt Q05516 1-673)
chain: MDLTKMGMIQLQNPSHPTGLLCKANQMRLAGTLCDVVIMVDSQEFHAHRTVLACTSKMFEILFHRNSQHYTLDFLSPKTFQQILEYAYTATLQAKAEDLDDLLYAAEILEIEYLEEQCLKMLETIQASDDNDTEATMADGGAEEEEDRKARYLKNIFISKHSSEESGYASVAGQSLPGPMVDQSPSVSTSFGLSAMSPTKAAVDSLMTIGQSLLQGTLQPPAGPEEPTLAGGGRHPGVAEVKTEMMQVDEVPSQDSPGAAESSISGGMGDKVEERGKEGPGTPTRSSVITSARELHYGREESAEQVPPPAEAGQAPTGRPEHPAPPPEKHLGIYSVLPNHKADAVLSMPSSVTSGLHVQPALAVSMDFSTYGGLLPQGFIQRELFSKLGELAVGMKSESRTIGEQCSVCAVELPDNEAVEQHRKLHSGMKTYGCELCGKRFLDSLRLRMHLLAHSAGAKAFVCDQCAAQFSKEDALETHRQTHTGTDMAVFCLLCGKRFQAQSALQQHMEVHAGVRSYICSECNRTFPSHTALKRHLRSHTGDHPYECEFCGSCFRDESTLKSHKRIHTGEKPYECNGCGKKFSLKHQLETHYRVHTGEKPFECKLCHQRSRDYSAMIKHLRTHNGASPYQCTICTEYCPSLSSMQKHMKGHKPEEIPPDWRIEKTYLYLCYV

Target: FLAG-HA (FH)-tagged human CRBN (human) (UniProt Q96SW2)
Test: co-IP; FH-CRBN and the tagged PLZF protein expressed in 293T; extracts in 1% Triton lysis buffer incubated 12 h with or without pomalidomide; anti-HA beads; immunoblot

| Binder | binding |
| --- | --- |
| B1 | no binding |
| B2 | no binding |
